Patent US20210179689A1 (SHATTUCK LABS, published 2021)
These are yes or no findings as the source states them, for the method shown. Some entries that bind do so weakly or less than the wild type. Where a sequence is shown, tags or fusion partners need not be part of it.

Biological target: T1, recombinant mouse CD40-Fc protein (mouse) (UniProt P27512)
T1 sequence (looked up): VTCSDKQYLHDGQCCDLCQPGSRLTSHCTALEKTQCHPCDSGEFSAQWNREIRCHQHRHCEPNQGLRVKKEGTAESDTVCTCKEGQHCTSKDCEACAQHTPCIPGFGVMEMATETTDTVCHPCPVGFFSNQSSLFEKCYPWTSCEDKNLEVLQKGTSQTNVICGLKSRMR
Test: ELISA: coat mCD40-Fc, detection anti-mCD40L and an HRP conjugate; standard curve

binding: binds
B1: mCD40L-Fc fusion protein (Fc fusion, murine, UniProt P27548 112-260, looked up)
chain: MQRGDEDPQIAAHVVSEANSNAASVLQWAKKGYYTMKSNLVMLENGKQLTVKREGLYYVYTQVTFCSNREPSSQRPFIVGLWLKPSSGSERILLKAANTHSSSQLCEQQSVHLGGVFELQAGASVFVNVTEASQVIHRVGFSSFGLLKL
notes: also called recombinant mCD40L-Fc protein; not shown: Fc part
